Measurements reported in PubChem BioAssay AID1259254 (NCATS, 2017)
This is a random part of about 59,000 reagents tested. About 1,550 of all reagents (2.6%) were called active. 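G2 share is only a proxy for re-replication; each gene was hit by three separate siRNAs, and active genes were retested.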 The raw values are shown without normalisation. Reagents against one gene are numbered here. Not given: the amount of reagent.

Aim: 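Genome-wide screen for genes that prevent DNA re-replication in cancer cells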 (primary screen)
Cell system: human HCT116 colorectal cancer cells
Knock-down reagent: single siRNA against human genes
Duration: 3 days
Read-out: 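Imaged Hoechst DNA stain sorts each cell into a cycle phase by DNA amount; per plate, G2 fraction set to 0% for non-targeting and 100% for GMNN siRNA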
Scale: G2 robust z-score and G2 cells, % of GMNN control: higher = more G2 cells, more excess DNA replication; raw share of cells in G2: higher = larger share of cells with G2 DNA content
Hit rule: 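An siRNA counts as active if its G2 robust z-score lies at least 5 MADs above the screen median; here such calls match roughly 38% of GMNN control or more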

Gene | siRNA no. | G2 robust z-score | G2 cells, % of GMNN control | raw share of cells in G2 (%) | activity call
NXPH3 (neurexophilin 3) | 1 | 1.32 | 12.3 | 8.26 | inactive
NXPH3 (neurexophilin 3) | 2 | -0.541 | -0.836 | 3.58 | inactive
NXPH3 (neurexophilin 3) | 3 | 1.93 | 16.5 | 13 | inactive
P2RY10 (P2Y receptor family member 10) | 1 | 2.66 | 21.7 | 13.6 | inactive
P2RY10 (P2Y receptor family member 10) | 2 | -0.634 | -1.5 | 3.99 | inactive
P2RY10 (P2Y receptor family member 10) | 3 | -0.554 | -0.929 | 2.98 | inactive
PHLPP1 (PH domain and leucine rich repeat protein phosphatase 1) | 1 | -1.11 | -4.85 | 3.08 | inactive
PHLPP1 (PH domain and leucine rich repeat protein phosphatase 1) | 2 | -0.438 | -0.116 | 4.09 | inactive
PHLPP1 (PH domain and leucine rich repeat protein phosphatase 1) | 3 | -0.178 | 1.71 | 3.81 | inactive
RNF2 (ring finger protein 2) | 1 | 1.18 | 11.2 | 7.93 | inactive
RNF2 (ring finger protein 2) | 2 | 0.613 | 7.28 | 8.26 | inactive
RNF2 (ring finger protein 2) | 3 | -0.801 | -2.67 | 2.14 | inactive
ZNF417 (zinc finger protein 417) | 1 | 0.16 | 4.09 | 4.5 | inactive
ZNF417 (zinc finger protein 417) | 2 | 0.0337 | 3.2 | 4.28 | inactive
ZNF417 (zinc finger protein 417) | 3 | 0.202 | 4.39 | 5.06 | inactive
ANKRD65 (ankyrin repeat domain 65) | 1 | 1.41 | 12.9 | 8.6 | inactive
ANKRD65 (ankyrin repeat domain 65) | 2 | -0.225 | 1.38 | 3.94 | inactive
ANKRD65 (ankyrin repeat domain 65) | 3 | 3.94 | 30.7 | 13.5 | inactive
SYNE4 (spectrin repeat containing nuclear envelope family member 4) | 1 | -1.03 | -4.28 | 2.07 | inactive
SYNE4 (spectrin repeat containing nuclear envelope family member 4) | 2 | 1.43 | 13 | 7.32 | inactive
SYNE4 (spectrin repeat containing nuclear envelope family member 4) | 3 | -0.679 | -1.81 | 2.19 | inactive
GPR34 (G protein-coupled receptor 34) | 1 | 0.91 | 9.37 | 9.19 | inactive
GPR34 (G protein-coupled receptor 34) | 2 | 0.885 | 9.19 | 7.73 | inactive
GPR34 (G protein-coupled receptor 34) | 3 | 2.64 | 21.6 | 9.88 | inactive
FOXL3-OT1 (FOXL3 overlapping transcript 1) | 1 | -1.05 | -4.4 | 1.41 | inactive
FOXL3-OT1 (FOXL3 overlapping transcript 1) | 2 | 1.05 | 10.4 | 7 | inactive
FOXL3-OT1 (FOXL3 overlapping transcript 1) | 3 | 1.39 | 12.8 | 6.57 | inactive
FOXI3 (forkhead box I3) | 1 | 2.29 | 19.1 | 11.6 | inactive
FOXI3 (forkhead box I3) | 2 | -0.707 | -2.01 | 3.38 | inactive
FOXI3 (forkhead box I3) | 3 | -0.738 | -2.22 | 2.67 | inactive
FOXI3 (forkhead box I3) | 4 | 0.414 | 5.88 | 6.01 | inactive
FOXI3 (forkhead box I3) | 5 | 0.851 | 8.96 | 7.18 | inactive
FOXI3 (forkhead box I3) | 6 | 0.268 | 4.85 | 5.5 | inactive
KDSR (3-ketodihydrosphingosine reductase) | 1 | -0.791 | -2.6 | 4.28 | inactive
KDSR (3-ketodihydrosphingosine reductase) | 2 | -0.207 | 1.51 | 4.2 | inactive
KDSR (3-ketodihydrosphingosine reductase) | 3 | 3.72 | 29.1 | 15.8 | inactive
HAPSTR2 (HUWE1 associated protein modifying stress responses 2) | 1 | -0.506 | -0.595 | 4.38 | inactive
HAPSTR2 (HUWE1 associated protein modifying stress responses 2) | 2 | 1.19 | 11.4 | 7.67 | inactive
HAPSTR2 (HUWE1 associated protein modifying stress responses 2) | 3 | -0.402 | 0.139 | 3.47 | inactive
PSCA (prostate stem cell antigen) | 1 | 3.77 | 29.5 | 18.2 | inactive
PSCA (prostate stem cell antigen) | 2 | -0.401 | 0.143 | 3.95 | inactive
PSCA (prostate stem cell antigen) | 3 | 2.59 | 21.2 | 10.8 | inactive

Copied from above, 7 entries:
Gene | siRNA no. | G2 robust z-score | G2 cells, % of GMNN control | raw share of cells in G2 (%) | activity call
FOXL3-OT1 (FOXL3 overlapping transcript 1) | 2 | 1.05 | 10.4 | 7 | inactive
FOXL3-OT1 (FOXL3 overlapping transcript 1) | 3 | 1.39 | 12.8 | 6.57 | inactive
FOXI3 (forkhead box I3) | 1 | 2.29 | 19.1 | 11.6 | inactive
FOXI3 (forkhead box I3) | 2 | -0.707 | -2.01 | 3.38 | inactive
FOXI3 (forkhead box I3) | 3 | -0.738 | -2.22 | 2.67 | inactive
FOXI3 (forkhead box I3) | 4 | 0.414 | 5.88 | 6.01 | inactive
FOXI3 (forkhead box I3) | 5 | 0.851 | 8.96 | 7.18 | inactive

Further records follow.
Gene | siRNA no. | G2 robust z-score | G2 cells, % of GMNN control | raw share of cells in G2 (%) | activity call
LOC155060 (AI894139 pseudogene) | 1 | 0.69 | 7.82 | 5.78 | inactive
LOC155060 (AI894139 pseudogene) | 2 | 2.91 | 23.4 | 11.3 | inactive
LOC155060 (AI894139 pseudogene) | 3 | -0.633 | -1.48 | 3 | inactive
RPL7P46 (ribosomal protein L7 pseudogene 46) | 1 | -0.14 | 1.98 | 4.39 | inactive
RPL7P46 (ribosomal protein L7 pseudogene 46) | 2 | 0.444 | 6.09 | 5.73 | inactive
RPL7P46 (ribosomal protein L7 pseudogene 46) | 3 | 2.37 | 19.6 | 9.79 | inactive
RAF1 (Raf-1 proto-oncogene, serine/threonine kinase) | 1 | -2 | -11.1 | 1.94 | inactive
RAF1 (Raf-1 proto-oncogene, serine/threonine kinase) | 2 | -0.701 | -1.97 | 4.75 | inactive
RAF1 (Raf-1 proto-oncogene, serine/threonine kinase) | 3 | -1.25 | -5.8 | 1.98 | inactive
NISCH (nischarin) | 1 | -0.012 | 2.88 | 7.53 | inactive
NISCH (nischarin) | 2 | -0.828 | -2.86 | 3.2 | inactive
NISCH (nischarin) | 3 | -0.118 | 2.14 | 4.6 | inactive
MAP1S (microtubule associated protein 1S) | 1 | 0.0485 | 3.31 | 7.88 | inactive
MAP1S (microtubule associated protein 1S) | 2 | 1.82 | 15.7 | 10.1 | inactive
MAP1S (microtubule associated protein 1S) | 3 | 0.362 | 5.52 | 6.63 | inactive
LHFPL6 (LHFPL tetraspan subfamily member 6) | 1 | 0.829 | 8.8 | 9.31 | inactive
LHFPL6 (LHFPL tetraspan subfamily member 6) | 2 | -0.215 | 1.45 | 4.55 | inactive
LHFPL6 (LHFPL tetraspan subfamily member 6) | 3 | 0.886 | 9.2 | 6.75 | inactive
PDE2A (phosphodiesterase 2A) | 1 | 1.08 | 10.6 | 8.24 | inactive
PDE2A (phosphodiesterase 2A) | 2 | -0.48 | -0.411 | 3.37 | inactive
PDE2A (phosphodiesterase 2A) | 3 | -0.328 | 0.658 | 4.5 | inactive
FOXP2 (forkhead box P2) | 1 | 1.75 | 15.3 | 12.8 | inactive
FOXP2 (forkhead box P2) | 2 | -0.529 | -0.754 | 4.64 | inactive
FOXP2 (forkhead box P2) | 3 | 2.72 | 22.1 | 12.8 | inactive
BICDL2 (BICD family like cargo adaptor 2) | 1 | -0.615 | -1.36 | 2.59 | inactive
BICDL2 (BICD family like cargo adaptor 2) | 2 | 0.0839 | 3.56 | 5.02 | inactive
BICDL2 (BICD family like cargo adaptor 2) | 3 | 0.443 | 6.08 | 4.79 | inactive
